Test results reported in US7351399B2, “Prodrugs for phosphorus-containing compounds” (Metabasis Therapeutics, Inc., priority 1998, dated 2008).
Some entries share one result that the patent states for a list of compounds. At least one compound was matched to its structure with a doubt left.

Tested on: isolated rat hepatocytes
Experiment: Activation in isolated rat hepatocytes (Example I)
Details: 100 μM prodrug; after addition to the cell suspension

Structure (SMILES)	time to peak intrahepatocyte level of parent compound
CC(C)Cn1c(-c2ccc(P3(=O)OCC(CO)CO3)o2)nc2ccc(Cl)cc21 (centres unmarked) [Compound 7.1, 6-Chloro-1-isobutyl-2-{5-[2′-(hydroxymethyl)-propan-1′,3′-yl]phosphono-2-furanyl}benzimidazole]	≤ 15 min
CC(=O)OCC1COP(=O)(c2ccc(-c3nc4ccc(Cl)cc4n3CC(C)C)o2)OC1 (centres unmarked) [Compound 7.2, 6-Chloro-1-isobutyl-2-{5-[2′-(acetoxymethyl)-propan-1′,3′-yl]phosphono-2-furanyl}benzimidazole]	≤ 15 min
